Publication PMC3271067
Results are given in words; binding and its absence hold for the method and conditions named. In cells and extracts the contact can be indirect. Binding calls can cover weak binding; strength is not graded here.

Biological target: T1, Kar3-3HA (S. cerevisiae) (UniProt P17119)
T1 sequence: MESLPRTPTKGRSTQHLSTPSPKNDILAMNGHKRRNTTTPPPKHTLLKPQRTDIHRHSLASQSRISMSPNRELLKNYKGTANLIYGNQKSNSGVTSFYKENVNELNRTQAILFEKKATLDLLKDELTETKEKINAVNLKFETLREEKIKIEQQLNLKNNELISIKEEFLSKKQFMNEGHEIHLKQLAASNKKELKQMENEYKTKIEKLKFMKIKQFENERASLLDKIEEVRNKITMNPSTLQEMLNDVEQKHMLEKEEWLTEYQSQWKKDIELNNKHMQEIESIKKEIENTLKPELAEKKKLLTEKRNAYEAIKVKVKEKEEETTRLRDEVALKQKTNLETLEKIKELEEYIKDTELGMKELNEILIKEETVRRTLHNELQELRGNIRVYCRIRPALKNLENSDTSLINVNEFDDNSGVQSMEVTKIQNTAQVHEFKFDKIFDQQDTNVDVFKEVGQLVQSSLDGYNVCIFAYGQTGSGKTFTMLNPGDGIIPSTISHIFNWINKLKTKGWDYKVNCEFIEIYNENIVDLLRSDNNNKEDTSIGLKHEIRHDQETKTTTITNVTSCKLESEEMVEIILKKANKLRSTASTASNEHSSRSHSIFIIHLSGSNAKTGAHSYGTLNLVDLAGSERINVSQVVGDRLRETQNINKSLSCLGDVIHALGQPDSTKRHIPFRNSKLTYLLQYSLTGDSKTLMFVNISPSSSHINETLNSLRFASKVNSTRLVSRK
Experiment: co-IP; as a1 (IP with anti-HA antibody), but cells carry the PGALCIK1-CC plasmid and overexpress CIK1-CC (galactose for 3 hrs)

Substance: Cik1-CC (coiled-coil domain of Cik1, expressed from the PGALCIK1-CC plasmid) (S. cerevisiae) (domain or fragment)
- binding: binds
